Literature values, collected in patent publication US10877026B2, “Blood brain barrier models and methods to generate and use the same” (Purdue Research Foundation, priority 2016, dated 2020).
For at least one compound, name, drawing or mass did not settle the structure.

Conditions: cited from earlier work

## NC(N)=O [Urea]
  Hydrodynamic Radius: 1.8 Å
  Stokes Radius: 1.7 Å
